The record followed here is patent publication US20230416798A1 (MBRACE THERAPEUTICS, published 2023).

The chains behind the UniProt entries cited, without tags or fusion partners. Residues count along the entry.
UniProt G3I8R9, residues 19-654: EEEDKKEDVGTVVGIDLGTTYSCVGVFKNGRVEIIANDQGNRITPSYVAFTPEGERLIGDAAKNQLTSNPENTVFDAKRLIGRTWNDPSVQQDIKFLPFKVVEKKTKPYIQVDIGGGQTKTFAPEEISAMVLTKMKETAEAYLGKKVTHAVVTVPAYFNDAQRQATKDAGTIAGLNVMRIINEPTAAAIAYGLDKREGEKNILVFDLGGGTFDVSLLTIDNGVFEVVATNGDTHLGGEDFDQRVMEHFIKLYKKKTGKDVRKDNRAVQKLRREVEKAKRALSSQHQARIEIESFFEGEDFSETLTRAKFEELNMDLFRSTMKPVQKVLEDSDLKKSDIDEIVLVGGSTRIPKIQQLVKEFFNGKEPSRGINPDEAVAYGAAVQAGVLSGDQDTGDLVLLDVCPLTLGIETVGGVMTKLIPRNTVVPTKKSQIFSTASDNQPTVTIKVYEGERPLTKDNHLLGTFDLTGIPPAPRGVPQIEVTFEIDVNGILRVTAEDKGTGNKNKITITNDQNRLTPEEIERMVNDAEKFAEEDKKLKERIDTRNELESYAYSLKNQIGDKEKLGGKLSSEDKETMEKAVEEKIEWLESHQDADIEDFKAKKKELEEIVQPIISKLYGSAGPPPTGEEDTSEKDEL

These are yes or no findings as the source states them, for the method shown. Binding seen in cells or lysates may run through a third protein. Some entries that bind do so weakly or less than the wild type.

The target in this assay is native GRP78 of CHO cells (Chinese hamster (native protein of the CHO cells)) (UniProt G3I8R9). The experiment in a line: co-purification with the antibody from CHO supernatant (MabSelect PrismA column), SDS-PAGE.

B1: anti-GRP78 antibody clone B4 (antibody, IgG1, V domains shown)
VH: QVRLQESGPGLVKPSQTLSLTCTVSGGSISSGGYYWSWIRQHPGKGLEWIGYIYYSGSTYYNPSLESRVTISVDTSKNQFSLKLSSVTAADTAVYYCARYSSIDAFEIWGQGTMVTVSS
VL: SYVLTQPPSVSVAPGKTATITCGGDDIGSKSVHWYQQKPGQAPVLVVYDDGDRPSGIPERFSGSNSGNTATLAISRVEAGDEADYYCQVWDSSSDQYVFGSGTKLTVL
notes: Fully human mAb formatted as full-length IgG1; also called B4 mAb
Take B1: the binding entry is given as “binds”.

B2: anti-GRP78 antibody clone F6 (antibody, IgG1, V domains shown)
VH: QVQLQQSGPGLVKPPQTLSLTCAISGDSVSSNSAAWNWIRQSPSRGLEWLGRTYYRSKWYNDYAVSVKSRITINPDTSKNQFSLQLNSVTPEDTAVYYCARDPYYYDSSGYYYFDAFDIWGQGTMVTVSS
VL: SYELTQPHSVSVAPGQTARITCGGDNIGSKSVHWYQQRPGQAPVLVVYDDSDRPSGIPERFSGSNSENTATLTISGVEAGDEADYYCQVWDSTSHHVVFGGGTKLTVL
notes: Fully human mAb formatted as full-length IgG1; also called F6 mAb; Anti-GRP78 (F6)
On to B2, for which the binding entry is listed as “binds”.
